Test results reported in publication PMC6802648.
No constants are given. Whether binding was seen depends on the method and setting. Binding seen in cells or lysates may run through a third protein.

Amino acid sequences for entries named in this document (tags omitted).
UniProt Q00987: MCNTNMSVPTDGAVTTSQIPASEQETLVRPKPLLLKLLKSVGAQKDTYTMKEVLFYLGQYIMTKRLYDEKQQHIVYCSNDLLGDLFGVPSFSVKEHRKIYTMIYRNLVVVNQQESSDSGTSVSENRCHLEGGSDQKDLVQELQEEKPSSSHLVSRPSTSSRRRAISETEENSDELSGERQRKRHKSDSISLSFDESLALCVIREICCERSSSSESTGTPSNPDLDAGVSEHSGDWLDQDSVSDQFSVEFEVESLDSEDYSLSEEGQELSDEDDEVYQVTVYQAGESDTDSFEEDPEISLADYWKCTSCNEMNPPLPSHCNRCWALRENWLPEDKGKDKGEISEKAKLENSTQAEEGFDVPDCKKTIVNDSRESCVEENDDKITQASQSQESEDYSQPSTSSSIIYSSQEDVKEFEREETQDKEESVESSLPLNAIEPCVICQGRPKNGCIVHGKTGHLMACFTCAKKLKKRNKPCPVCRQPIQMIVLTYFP

Biological target: MDM2 (human (endogenous in ARPE-19)) (UniProt Q00987)
Test: co-IP; ARPE-19 (RPE) cell lysates in RIPA buffer, precleared; anti-MDM2 antibody, protein A agarose, 4 °C; blotted for p53 and TXNIP; shCtrl and TXNIP knock-down (shTXNIP) cells

B1: Thioredoxin-interacting protein (TXNIP) (protein, UniProt Q9H3M7-1 1-391)
chain: MVMFKKIKSFEVVFNDPEKVYGSGEKVAGRVIVEVCEVTRVKAVRILACGVAKVLWMQGSQQCKQTSEYLRYEDTLLLEDQPTGENEMVIMRPGNKYEYKFGFELPQGPLGTSFKGKYGCVDYWVKAFLDRPSQPTQETKKNFEVVDLVDVNTPDLMAPVSAKKEKKVSCMFIPDGRVSVSARIDRKGFCEGDEISIHADFENTCSRIVVPKAAIVARHTYLANGQTKVLTQKLSSVRGNHIISGTCASWRGKSLRVQKIRPSILGCNILRVEYSLLIYVSVPGSKKVILDLPLVIGSRSGLSSRTSSMASRTSSEMSWVDLNIPDTPEAPPCYMDVIPEDHRLESPTTPLLDDMDGSQDSPIFMYAPEFKFMPPPTYTEVDPCILNNNVQ
  binding: no binding
